Source: the supplement of paper PMC11732987, “Enantioselective OTUD7B fragment discovery through chemoproteomics screening and high-throughput optimisation” (Communications Chemistry, 2025)
The list shows a part of the results. The data scatter; read single values as rough.

Sequences of proteins named here, by UniProt entry; tags and fusion partners are left off. A change or cut given only in a name is not applied to a line headed by its entry. Residues count along the entry.
UniProt Q9UPU5: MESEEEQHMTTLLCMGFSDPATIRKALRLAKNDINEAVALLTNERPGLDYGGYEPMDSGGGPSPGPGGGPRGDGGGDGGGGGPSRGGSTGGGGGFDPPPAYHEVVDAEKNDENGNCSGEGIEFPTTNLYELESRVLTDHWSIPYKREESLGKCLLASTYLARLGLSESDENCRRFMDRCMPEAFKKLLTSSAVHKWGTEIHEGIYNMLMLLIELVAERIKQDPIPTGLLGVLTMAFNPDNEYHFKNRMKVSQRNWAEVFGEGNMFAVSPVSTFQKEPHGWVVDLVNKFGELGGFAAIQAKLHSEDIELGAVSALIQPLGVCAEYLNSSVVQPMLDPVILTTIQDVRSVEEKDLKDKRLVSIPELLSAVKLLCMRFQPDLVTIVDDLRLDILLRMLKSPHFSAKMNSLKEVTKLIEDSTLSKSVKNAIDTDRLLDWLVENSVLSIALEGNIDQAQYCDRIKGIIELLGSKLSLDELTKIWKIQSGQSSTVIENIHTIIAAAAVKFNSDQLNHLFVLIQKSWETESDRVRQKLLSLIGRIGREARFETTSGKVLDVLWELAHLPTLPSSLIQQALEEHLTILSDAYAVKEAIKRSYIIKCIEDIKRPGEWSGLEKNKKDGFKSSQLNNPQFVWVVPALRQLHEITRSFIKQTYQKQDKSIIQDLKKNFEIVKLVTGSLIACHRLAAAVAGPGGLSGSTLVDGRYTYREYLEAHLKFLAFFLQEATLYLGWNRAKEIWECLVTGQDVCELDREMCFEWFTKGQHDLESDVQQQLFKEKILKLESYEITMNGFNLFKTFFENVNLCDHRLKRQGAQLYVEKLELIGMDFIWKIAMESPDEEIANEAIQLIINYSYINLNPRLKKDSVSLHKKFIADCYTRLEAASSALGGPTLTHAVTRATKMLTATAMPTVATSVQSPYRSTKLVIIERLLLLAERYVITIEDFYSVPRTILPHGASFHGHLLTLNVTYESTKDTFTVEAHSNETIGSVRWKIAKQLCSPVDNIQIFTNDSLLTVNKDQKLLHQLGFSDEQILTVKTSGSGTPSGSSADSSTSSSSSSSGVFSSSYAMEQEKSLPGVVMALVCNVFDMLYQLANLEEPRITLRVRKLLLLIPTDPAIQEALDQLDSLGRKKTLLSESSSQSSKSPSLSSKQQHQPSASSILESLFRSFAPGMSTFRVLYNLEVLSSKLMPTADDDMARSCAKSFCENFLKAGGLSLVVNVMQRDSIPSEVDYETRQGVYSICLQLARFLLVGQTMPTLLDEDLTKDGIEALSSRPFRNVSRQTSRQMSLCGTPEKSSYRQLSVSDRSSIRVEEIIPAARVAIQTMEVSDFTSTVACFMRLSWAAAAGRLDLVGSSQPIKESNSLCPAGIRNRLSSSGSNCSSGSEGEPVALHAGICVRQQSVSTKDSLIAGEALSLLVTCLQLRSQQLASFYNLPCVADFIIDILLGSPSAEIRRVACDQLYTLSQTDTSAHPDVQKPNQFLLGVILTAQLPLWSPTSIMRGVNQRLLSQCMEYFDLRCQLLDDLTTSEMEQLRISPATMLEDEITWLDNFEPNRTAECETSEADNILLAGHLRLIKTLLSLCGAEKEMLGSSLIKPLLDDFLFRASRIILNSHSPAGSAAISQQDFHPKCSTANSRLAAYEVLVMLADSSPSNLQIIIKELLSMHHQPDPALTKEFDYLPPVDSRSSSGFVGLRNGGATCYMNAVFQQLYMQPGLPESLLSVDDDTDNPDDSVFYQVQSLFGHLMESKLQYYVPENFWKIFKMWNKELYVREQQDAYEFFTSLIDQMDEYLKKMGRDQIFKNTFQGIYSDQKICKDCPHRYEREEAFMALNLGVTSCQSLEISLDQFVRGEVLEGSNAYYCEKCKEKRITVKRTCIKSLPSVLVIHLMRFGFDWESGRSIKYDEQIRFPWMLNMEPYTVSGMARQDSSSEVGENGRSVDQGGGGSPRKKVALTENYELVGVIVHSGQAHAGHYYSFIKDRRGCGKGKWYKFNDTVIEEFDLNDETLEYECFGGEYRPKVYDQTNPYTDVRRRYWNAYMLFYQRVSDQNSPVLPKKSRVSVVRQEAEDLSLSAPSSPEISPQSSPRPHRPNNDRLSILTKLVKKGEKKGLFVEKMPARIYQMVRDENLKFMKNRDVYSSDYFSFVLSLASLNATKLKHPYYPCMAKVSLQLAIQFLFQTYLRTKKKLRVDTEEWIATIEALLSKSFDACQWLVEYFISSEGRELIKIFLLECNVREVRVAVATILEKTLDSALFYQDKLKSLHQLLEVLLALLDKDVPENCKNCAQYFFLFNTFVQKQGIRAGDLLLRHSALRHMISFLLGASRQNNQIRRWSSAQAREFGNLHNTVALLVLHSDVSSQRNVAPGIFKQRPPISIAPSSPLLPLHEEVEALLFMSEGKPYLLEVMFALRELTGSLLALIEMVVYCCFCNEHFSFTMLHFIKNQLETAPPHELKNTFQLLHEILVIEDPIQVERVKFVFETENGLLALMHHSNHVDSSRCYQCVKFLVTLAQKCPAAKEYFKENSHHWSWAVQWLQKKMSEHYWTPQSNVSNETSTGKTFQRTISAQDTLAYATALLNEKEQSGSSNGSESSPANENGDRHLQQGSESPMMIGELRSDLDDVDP
UniProt Q9Y5T5, whole entry, looked up: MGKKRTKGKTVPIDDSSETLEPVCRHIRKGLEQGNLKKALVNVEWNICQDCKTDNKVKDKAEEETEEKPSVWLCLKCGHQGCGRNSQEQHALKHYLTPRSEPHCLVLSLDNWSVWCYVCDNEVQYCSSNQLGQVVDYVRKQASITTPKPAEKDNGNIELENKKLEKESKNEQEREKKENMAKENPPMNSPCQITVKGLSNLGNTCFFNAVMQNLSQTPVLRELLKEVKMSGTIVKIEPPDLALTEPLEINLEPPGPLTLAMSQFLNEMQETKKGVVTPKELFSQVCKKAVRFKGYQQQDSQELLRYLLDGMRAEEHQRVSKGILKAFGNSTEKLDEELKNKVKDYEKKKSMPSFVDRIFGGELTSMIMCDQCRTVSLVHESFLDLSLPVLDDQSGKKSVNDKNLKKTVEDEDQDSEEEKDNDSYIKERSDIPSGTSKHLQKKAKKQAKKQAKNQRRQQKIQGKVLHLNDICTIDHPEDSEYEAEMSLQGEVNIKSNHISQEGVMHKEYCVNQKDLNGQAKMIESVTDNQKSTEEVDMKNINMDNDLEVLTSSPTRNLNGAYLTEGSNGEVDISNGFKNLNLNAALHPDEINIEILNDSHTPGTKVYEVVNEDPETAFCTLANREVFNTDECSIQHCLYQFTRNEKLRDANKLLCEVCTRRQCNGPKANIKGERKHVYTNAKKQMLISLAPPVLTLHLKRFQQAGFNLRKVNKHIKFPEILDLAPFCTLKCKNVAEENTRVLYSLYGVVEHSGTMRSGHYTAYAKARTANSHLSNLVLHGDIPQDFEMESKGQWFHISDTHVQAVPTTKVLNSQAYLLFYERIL
UniProt Q9NUQ7: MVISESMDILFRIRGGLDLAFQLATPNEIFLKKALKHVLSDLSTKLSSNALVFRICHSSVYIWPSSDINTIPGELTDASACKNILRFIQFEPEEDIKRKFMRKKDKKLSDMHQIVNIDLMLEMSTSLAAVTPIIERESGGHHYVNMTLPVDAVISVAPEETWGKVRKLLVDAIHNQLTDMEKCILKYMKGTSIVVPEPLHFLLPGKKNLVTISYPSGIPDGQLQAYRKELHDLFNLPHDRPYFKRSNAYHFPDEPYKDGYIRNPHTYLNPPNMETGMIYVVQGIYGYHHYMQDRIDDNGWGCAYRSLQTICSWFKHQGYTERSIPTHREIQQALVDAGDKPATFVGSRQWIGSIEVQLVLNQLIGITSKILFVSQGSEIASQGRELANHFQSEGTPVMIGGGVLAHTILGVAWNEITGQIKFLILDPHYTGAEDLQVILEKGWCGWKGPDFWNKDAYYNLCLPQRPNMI
UniProt P09936: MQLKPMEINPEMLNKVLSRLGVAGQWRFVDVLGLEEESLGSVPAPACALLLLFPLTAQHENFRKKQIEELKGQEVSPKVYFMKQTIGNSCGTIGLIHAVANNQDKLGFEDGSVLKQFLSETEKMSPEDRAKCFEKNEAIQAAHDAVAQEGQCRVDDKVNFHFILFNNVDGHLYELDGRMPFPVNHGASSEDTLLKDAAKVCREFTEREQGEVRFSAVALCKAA
UniProt Q9Y3A2: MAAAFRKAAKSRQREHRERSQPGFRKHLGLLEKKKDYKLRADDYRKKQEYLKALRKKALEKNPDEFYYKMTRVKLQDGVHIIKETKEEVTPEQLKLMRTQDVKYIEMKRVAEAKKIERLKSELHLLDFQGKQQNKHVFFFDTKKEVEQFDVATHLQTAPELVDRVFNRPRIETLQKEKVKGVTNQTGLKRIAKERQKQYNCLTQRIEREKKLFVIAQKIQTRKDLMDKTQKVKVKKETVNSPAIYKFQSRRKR
UniProt O60763, 678-698: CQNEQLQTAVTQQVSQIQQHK
UniProt P54578: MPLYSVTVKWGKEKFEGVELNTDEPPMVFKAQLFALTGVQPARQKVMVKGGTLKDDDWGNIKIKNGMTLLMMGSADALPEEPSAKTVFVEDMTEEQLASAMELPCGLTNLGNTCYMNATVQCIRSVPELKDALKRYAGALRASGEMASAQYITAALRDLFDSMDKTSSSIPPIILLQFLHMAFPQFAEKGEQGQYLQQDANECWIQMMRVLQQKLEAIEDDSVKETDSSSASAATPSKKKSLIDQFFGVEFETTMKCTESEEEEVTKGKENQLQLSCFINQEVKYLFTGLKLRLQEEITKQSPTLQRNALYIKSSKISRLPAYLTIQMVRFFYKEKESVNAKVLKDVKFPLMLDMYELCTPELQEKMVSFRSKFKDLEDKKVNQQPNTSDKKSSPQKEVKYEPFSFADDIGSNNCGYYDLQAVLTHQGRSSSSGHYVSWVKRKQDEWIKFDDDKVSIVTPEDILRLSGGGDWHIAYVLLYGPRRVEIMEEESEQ
UniProt O14795: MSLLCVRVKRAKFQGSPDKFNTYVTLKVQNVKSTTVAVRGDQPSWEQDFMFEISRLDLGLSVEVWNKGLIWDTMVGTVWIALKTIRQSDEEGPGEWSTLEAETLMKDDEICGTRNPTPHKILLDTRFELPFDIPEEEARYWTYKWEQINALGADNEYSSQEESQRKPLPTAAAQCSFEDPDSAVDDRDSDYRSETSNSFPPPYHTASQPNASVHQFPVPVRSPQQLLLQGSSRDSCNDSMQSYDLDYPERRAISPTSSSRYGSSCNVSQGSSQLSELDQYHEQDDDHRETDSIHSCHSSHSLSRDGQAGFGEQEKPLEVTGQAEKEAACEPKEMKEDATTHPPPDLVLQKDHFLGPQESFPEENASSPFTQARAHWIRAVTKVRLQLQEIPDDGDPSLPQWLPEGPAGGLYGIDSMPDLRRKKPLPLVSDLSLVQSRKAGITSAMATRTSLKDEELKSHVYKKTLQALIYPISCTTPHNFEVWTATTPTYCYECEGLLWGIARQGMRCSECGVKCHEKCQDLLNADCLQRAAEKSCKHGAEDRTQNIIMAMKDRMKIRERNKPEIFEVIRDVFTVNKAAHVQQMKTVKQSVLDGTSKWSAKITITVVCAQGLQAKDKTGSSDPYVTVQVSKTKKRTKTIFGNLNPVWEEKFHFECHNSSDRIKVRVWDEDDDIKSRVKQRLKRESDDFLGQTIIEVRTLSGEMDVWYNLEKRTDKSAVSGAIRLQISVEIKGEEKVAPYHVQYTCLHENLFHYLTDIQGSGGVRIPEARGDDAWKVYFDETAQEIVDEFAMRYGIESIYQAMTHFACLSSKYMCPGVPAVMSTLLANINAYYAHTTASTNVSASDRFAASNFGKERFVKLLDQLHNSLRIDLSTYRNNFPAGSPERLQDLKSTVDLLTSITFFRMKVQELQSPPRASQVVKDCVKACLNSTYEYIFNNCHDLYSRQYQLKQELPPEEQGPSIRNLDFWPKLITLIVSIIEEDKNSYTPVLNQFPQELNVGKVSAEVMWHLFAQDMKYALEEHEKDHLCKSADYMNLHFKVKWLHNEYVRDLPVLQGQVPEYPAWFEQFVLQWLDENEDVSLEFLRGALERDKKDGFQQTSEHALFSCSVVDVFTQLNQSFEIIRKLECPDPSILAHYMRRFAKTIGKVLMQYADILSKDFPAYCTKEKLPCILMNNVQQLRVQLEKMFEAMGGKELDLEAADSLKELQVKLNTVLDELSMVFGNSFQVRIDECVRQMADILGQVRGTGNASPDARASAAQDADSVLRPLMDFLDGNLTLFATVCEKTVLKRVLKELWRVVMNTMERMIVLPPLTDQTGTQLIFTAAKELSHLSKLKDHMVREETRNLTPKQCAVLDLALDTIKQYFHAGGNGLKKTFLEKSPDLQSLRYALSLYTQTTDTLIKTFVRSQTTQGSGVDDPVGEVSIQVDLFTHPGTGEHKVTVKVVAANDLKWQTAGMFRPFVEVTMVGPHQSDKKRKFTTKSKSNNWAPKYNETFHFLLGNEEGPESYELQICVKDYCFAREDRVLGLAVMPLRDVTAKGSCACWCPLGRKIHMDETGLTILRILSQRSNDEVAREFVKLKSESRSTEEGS
UniProt Q8TEY7, 752-774: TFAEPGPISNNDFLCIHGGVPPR
UniProt Q7Z7G8, 1999-2021: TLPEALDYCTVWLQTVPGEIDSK

What was measured:
[1] = compound: ClCC(=O)N[C@@H]1CCCc2ccccc12; test: log2 mean competition ratio of IA-DTB cysteine labelling (DMSO/compound) (log2 ratio); higher = stronger cysteine engagement by compound; conditions: treatment time: 4 h, cell line lysate: HEK293T
Description: (§1)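 IA-DTB competitive cysteine chemoproteomics in HEK293T RIPA lysate. Lysates were treated with compound 29 or 30 at 50 or 200 µM for 4 h, then IA-DTB (500 µM, 1 h), trypsin-digested, NeutrAvidin-enriched and analysed by diaPASEF. Competition ratio = intensity DMSO / intensity compound (n=4 treated, n=64 DMSO); binding: mean log2 CR ≥ 1 and p ≤ 0.05 plus QC filters. Target is the cysteine site.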

[2] = compound: ClCC(=O)N[C@H]1CCCc2ccccc12; test: as above; conditions: treatment time: 4 h, cell line lysate: HEK293T
Description: as §1

Target	log2 mean competition ratio ([1]; 50 µM)	log2 mean competition ratio ([1]; 200 µM)	log2 mean competition ratio ([2]; 50 µM)	log2 mean competition ratio ([2]; 200 µM)
VPS29 C15 (UniProt Q9UBQ0)	-0.0673	-0.0693	0.194	-0.0947
ULK1 C927 (UniProt O75385)	0.463	-0.176	0.801	-0.155
USP24 C802 (UniProt Q9UPU5)	0.169	0.213	-0.205	-0.0155
VAC14 C101 (UniProt Q08AM6)	-0.273	-0.247	-0.341	-0.214
USP16 C24 (UniProt Q9Y5T5)	-0.251	-0.0943	0.252	-0.0057
UFSP2 C302 (UniProt Q9NUQ7)	-0.201	-0.299	0.0787	-0.204
UNC45B C207	0.259	-0.0373	0.405	-0.00582
UMPS C304 (UniProt P11172)	-0.42	-0.0976	0.26	-0.22
USP24 C2160 (UniProt Q9UPU5)	0.63	0.959	0.21	0.685
UTP20 C345 (UniProt O75691)	-0.13	0.138	-0.385	-0.0223
UCHL1 C152 (UniProt P09936)	-0.111	-0.13	0.275	-0.0733
VEZT C41	0.0676	0.0798	-0.111	0.0158
VPS33B C259 (UniProt Q9H267)	-0.108	-0.22	0.135	-0.135
VDAC1 C232	-0.219	-0.272	-0.281	-0.0597
USP24 C1556 (UniProt Q9UPU5)	-0.0579	-0.269	-0.429	-0.277
VKORC1L1 C58	0.262	0.0378	0.449	0.0739
USP42 C1145 (UniProt Q9H9J4)	-0.178	-0.283	0.0156	0.285
USP5 C838	0.0352	-0.226	0.0869	-0.488
USP34 C638 (UniProt Q70CQ2)	-0.152	0.0977	0.114	0.184
USP28 C952 (UniProt Q96RU2)	0.0548	-0.181	0.562	0.0506
UTP11 C201 (UniProt Q9Y3A2)	0.0796	0.581	0.394	0.284
USO1 C678 (UniProt O60763)	0.00127	-0.176	-0.217	-0.367
USP15 C570 (UniProt Q9Y4E8)	-0.0791	-0.0796	-0.0515	-0.164

Pulled one by one from the list above:
Target	log2 mean competition ratio ([1]; 50 µM)	log2 mean competition ratio ([1]; 200 µM)	log2 mean competition ratio ([2]; 50 µM)	log2 mean competition ratio ([2]; 200 µM)
ULK1 C927 (UniProt O75385)	0.463	-0.176	0.801	-0.155
USP24 C802 (UniProt Q9UPU5)	0.169	0.213	-0.205	-0.0155
USP16 C24 (UniProt Q9Y5T5)	-0.251	-0.0943	0.252	-0.0057

Continuation:

Target	log2 mean competition ratio ([1]; 50 µM)	log2 mean competition ratio ([1]; 200 µM)	log2 mean competition ratio ([2]; 50 µM)	log2 mean competition ratio ([2]; 200 µM)
USP14 C277 (UniProt P54578)	0.0689	0.00609	-0.186	-0.126
USP19 C1042 (UniProt O94966)	-0.463	-0.339	0.07	-0.274
UNC13B C655 (UniProt O14795)	0.287	0.131	0.18	-0.209
USP38 C180 (UniProt Q8NB14)	-0.0589	0.35	0.216	0.343
URI1 C44 (UniProt O94763)	-0.147	-0.119	-0.13	-0.0235
UBR5 C730 (UniProt O95071)	-0.0515	0.254	-0.171	0.264
USP7 C315	-0.153	-0.123	0.0713	0.0565
VEZF1 C327 (UniProt Q14119)	-0.0726	0.114	-0.0869	0.0498
UTRN C2602 (UniProt P46939)	0.13	0.274	0.293	0.329
USP16 C618 (UniProt Q9Y5T5)	-0.0158	-0.00289	0.0848	0.0919
USP16 C286 (UniProt Q9Y5T5)	-0.0163	-0.17	0.0507	0.0316
USP9X C2293 (UniProt Q93008)	-0.0674	-0.0992	-0.482	-0.108
URB2 C702 (UniProt Q14146)	-0.00645	-0.421	-0.131	0.0658
URB1 C473 (UniProt O60287)	-0.216	0.0154	-0.137	-0.2
USP30 C234 (UniProt Q70CQ3)	0.109	0.428	0.336	0.212
USP33 C766 (UniProt Q8TEY7)	0.371	0.129	-0.303	-0.0394
USP42 C588 (UniProt Q9H9J4)	-0.00672	0.0135	-0.000213	0.00529
VLDLR C318 (UniProt P98155)	-0.155	0.378	0.2	0.547
URB1 C169 (UniProt O60287)	0.0143	0.0296	0.0287	-0.155
UTP20 C242 (UniProt O75691)	0.188	-0.0953	0.137	-0.292
VPS13B C2007 (UniProt Q7Z7G8)	-0.216	0.314	-0.275	0.25
USP54 C1096 (UniProt Q70EL1)	0.191	0.453	0.103	0.55
